Reference: patent publication US9506933B2 (TOAGOSEI CO., LTD., priority 2011, dated 2016)
Ends that are not written are not given here.

Test: peptide made by a vendor (Fmoc solid-phase peptide synthesis)
Settings: whole synthesis, HPLC peak area ratio

MLPGLALLLLAAWTARA-OH
final HPLC purity: 92% to 94% | final purity (method not given): 94.38%
